Source: patent publication US7964638B2, “Skin cosmetic and wrinkle-reducing agent” (Kao Corporation, priority 2005, dated 2011)
At least one structure is not confirmed: it was looked up by name or label, or the drawing left a doubt.

Test system: photoaged skin
Assay: Wrinkle-reducing effect on photoaged skin of UV-irradiated hairless mice
Type: in vivo
Settings: compared with base material-applied group (Comparative example 1)

Question: With `CC1=C(/C=C/C(C)=C/C=C/C(C)=C/C(=O)O)C(C)(C)CCC1` [retinoic acid] as the compound, how does the “Epidermis thickness, result in words” value read?
Answer: acts to enhance thickening

Question: And the “Wrinkle score, result in words” value?
Answer: effective as to wrinkle score
